Numbering of substitutions follows the chain as printed. No constants are given. Whether binding was seen depends on the method and setting. Blank lines part the entries; values can stand above or below the binder they belong to.
Target: Streptavidin (UniProt P22629)
Assay: Streptavidin ELISA (streptavidin-coated plate without biotinylated O-antigen), area under the OD405 titration curve

B1: UaLPLO3-208L (antibody, V domains shown)
VH: QLQLQESGPGLVKPSETLSLTCSVSGVSISNFNYYWGWVRQPPGKPLEWIGTIYYNGNTYYNPSLKSRVTISVDTSKTQLSLKLLSVTAADTAVYYCAWDSGSVERFDHWSQGTLVTVSS
VL: QSVLTQPPSTSGTPGQRVTISCSGSSSNIGSKTVNWYKQVPGTAPKLLVFNDNQRPSRVPDRFSGSKSGTSASLAISGLQSDDEADYYCAAWDDNFNGLLFGGGTKLTVL
binding: no binding (tested: 4 ug/ml)

B3: UaLPLO3-547 (antibody, V domains shown)
VH: EVQLVESGGGLVQPGGSLRLSCSTSGFDFSRHWMTWVRQAPGKGLEWVADIKKDGSEENYVDTVKGRLTISRDNARRSLYLQMNSLRTDDTAVYYCARGPSYGDRSDYLDNWGQGTLVTVSS
VL: DIVMTQSPLSLAVTPGEPASISCRSSQWLLESNGHNYLDWYLQKPGQSPQLLIPLGSNRASGVPDRFSGSGSGTDFTLTISRVEAEDVGVYYCMQPLKLPYTFGQGTKLEIK
binding: no binding (tested: 4 ug/ml)

Second part, the binder after the results:

binding: no binding (tested: 4 ug/ml)
B2: UaLPLO3-601 (antibody, V domains shown)
VH: EVQLVESGGGLVQPGGSLRLSCEASGFTFSRNWMSWVRQIPGKGLEWVADIKADGSEKVYLDSMKGRLTISRDNARNLLYLQMDSLRVEDSALYHCARGPSYGDRCDYLDHWGRGALVTVSS
VL: DIVMTQSPLSLPVTPGEPASISCRSSQSLLEPNGHNYVDWYQQKPGQSPRLLIYLGSNRASGVPDRFSGSGGGTDFTLKISRVEAEDVGLYYCMQPLQTPYTFGQGTKLEIK

binding: no binding (tested: 4 ug/ml)
B4: UaLPLO3-555 (antibody, V domains shown)
VH: B3 VH
VL: B3 VL with P54S
